Out of some 400,000 compounds screened, about 13,000 (3.2%) were called active. The shares of active, inactive and inconclusive entries below differ from those in the screen. Calls come from the whole dose curve; as a rule, active = well fitted cell-killing curve with a large enough effect; inconclusive = small, poorly fitted or top-dose-only effect, or effect the other way; inactive = flat fitted curve, though single readings scatter. A potency beside an inconclusive call is a rough fit, not a confirmed value.
Test: qHTS assay for MDR1-selective chemotherapeutics: Primary screen using the drug-selected MDR subline cells KB-V1; note: nearly all actives have a fitted effect of over 60% in size
Details: KB-V1 MDR cells viability, CellTiter-Glo, 72 h; series mostly up to 46.1 µM
Procedure, shortened: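 Drug-selected KB-V1 cells, grown in DMEM lacking phenol red with 10% FBS, receive compound titrations; after three days at 37 degrees C, surviving cell ATP is quantified by CellTiter-Glo luminescence and responses normalized and curve-fitted.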
Potency is the fitted concentration of half-maximal effect.

| Compound | Potency |
| --- | --- |
| O=C(c1cccs1)N1CCC(c2nc(-c3ccc(S(=O)(=O)N4CCOCC4)cc3)no2)CC1 | active: 5.8 µM |
| Cc1ccc(C)c(C(=O)COC(=O)CN2C(=O)C3C4C=CC(C4)C3C2=O)c1 (stereo not given) | inconclusive: 9.2 µM [rising, partial curve, poor fit] |
| O=[N+]([O-])CC(c1ccccc1)c1c[nH]c2ccccc12 (stereo not given) | inconclusive: 29.1 µM [cytotoxic, single point] |
| CCCn1c(SCC(=O)Nc2cc(C)on2)nc2c1c(=O)n(C)c(=O)n2C | inconclusive: 29.1 µM [cytotoxic, single point] |
| CCOc1ccc(N(CC(=O)Nc2ccccc2C(=O)N2CCOCC2)S(=O)(=O)c2ccc(F)cc2)cc1 | active: 4.61 µM |
| COc1ccc(C2OC(CCc3ccccc3)Cc3[nH]c(=S)[nH]c(=O)c32)cc1 (stereo not given) | inconclusive: 18.4 µM [cytotoxic, single point] |
| O=C(CCCSc1nnnn1-c1cccc2ccccc12)c1ccc(F)cc1 | inconclusive: 23.1 µM [cytotoxic, single point] |
| CCOC(=O)c1c(P(=O)(N2CCOCC2)N2CCOCC2)noc1N | inconclusive: 29.1 µM [rising, single point] |
| COc1cccc(C(=O)NCC(=O)NCc2cc(=O)n(C)c(=O)n2C)c1OC | inconclusive: 11.6 µM [rising, partial curve] |
| COC(CNC(=O)CN1CCN(Cc2ccc(F)cc2Cl)C1=O)OC | inactive |
| O=C(N/N=C\c1cc2c(cc1Cl)OCO2)c1cccs1 | inactive |
| COC(=O)COc1ccc(S(=O)(=O)N2CCCCCC2)cc1C | inconclusive: 29.1 µM [rising, single point] |
| Cc1cc(OCC(=O)Nc2cccc(-c3nc4ccccc4o3)c2C)cc(C)c1Cl | inactive |
| CC1(C)OC(=O)C(=CNCCc2ccc(O)cc2)C(=O)O1 | inactive |
| O=S(=O)(Nc1ccc(Nc2ccccc2)cc1)c1ccc(F)cc1 | inconclusive: 14.6 µM [cytotoxic, partial curve, poor fit] |
| CCNc1c2c(nc3ccccc13)CC(C)(C)CC2=O | inconclusive: 23.1 µM [cytotoxic, partial curve, poor fit] |
| Cc1ccccc1NCc1ccc(O)c2ncccc12 | inconclusive: 16.4 µM [cytotoxic, single point] |
| O=C(Cn1cc(C(F)(F)F)ccc1=O)N/N=C/c1ccc(Cl)cc1Cl | inactive |
| O=C(Nc1ccccc1)C(=O)Nc1ccccn1 | inconclusive: 18.4 µM [cytotoxic, partial curve, poor fit] |
| COC(=O)c1ccc2nc(-c3cccc(Cl)c3)c(CC3CCCCC3)n2c1 | inconclusive: 9.2 µM [cytotoxic, partial curve] |
| Cc1nc2ccc(NS(=O)(=O)c3ccc(F)cc3F)cc2s1 | active: 4.11 µM |
| Cc1ccc(C)c(N2CCN(C(=O)c3cn(C)c4ccc(S(=O)(=O)N(C)C)cc4c3=O)CC2)c1 | inconclusive: 2.91 µM [rising, partial curve, poor fit] |
| O=C(N/N=C/c1ccc([N+](=O)[O-])o1)c1cc2ccccc2o1 | inconclusive: 5.8 µM [cytotoxic, single point] |

12 structures out of the list, arranged by molecular weight, descending.

| Compound | Potency |
| --- | --- |
| O=C(c1cccs1)N1CCC(c2nc(-c3ccc(S(=O)(=O)N4CCOCC4)cc3)no2)CC1 | active: 5.8 µM |
| Cc1cc(OCC(=O)Nc2cccc(-c3nc4ccccc4o3)c2C)cc(C)c1Cl | inactive |
| COc1ccc(C2OC(CCc3ccccc3)Cc3[nH]c(=S)[nH]c(=O)c32)cc1 (stereo not given) | inconclusive: 18.4 µM [cytotoxic, single point] |
| O=C(Cn1cc(C(F)(F)F)ccc1=O)N/N=C/c1ccc(Cl)cc1Cl | inactive |
| COC(=O)c1ccc2nc(-c3cccc(Cl)c3)c(CC3CCCCC3)n2c1 | inconclusive: 9.2 µM [cytotoxic, partial curve] |
| COC(CNC(=O)CN1CCN(Cc2ccc(F)cc2Cl)C1=O)OC | inactive |
| Cc1ccc(C)c(C(=O)COC(=O)CN2C(=O)C3C4C=CC(C4)C3C2=O)c1 (stereo not given) | inconclusive: 9.2 µM [rising, partial curve, poor fit] |
| O=S(=O)(Nc1ccc(Nc2ccccc2)cc1)c1ccc(F)cc1 | inconclusive: 14.6 µM [cytotoxic, partial curve, poor fit] |
| COC(=O)COc1ccc(S(=O)(=O)N2CCCCCC2)cc1C | inconclusive: 29.1 µM [rising, single point] |
| CCNc1c2c(nc3ccccc13)CC(C)(C)CC2=O | inconclusive: 23.1 µM [cytotoxic, partial curve, poor fit] |
| O=[N+]([O-])CC(c1ccccc1)c1c[nH]c2ccccc12 (stereo not given) | inconclusive: 29.1 µM [cytotoxic, single point] |
| Cc1ccccc1NCc1ccc(O)c2ncccc12 | inconclusive: 16.4 µM [cytotoxic, single point] |

Next records.

| Compound | Potency |
| --- | --- |
| O=C(CCCSc1nnc(SCCCC(=O)c2ccc(F)cc2)s1)c1ccc(F)cc1 | inconclusive: 29.1 µM [cytotoxic, single point] |
| O=C(COc1ccc(F)cc1Cl)Nc1cc(S(=O)(=O)N2CCOCC2)ccc1N1CCCCC1 | inconclusive: 2.59 µM [cytotoxic, full curve] |
| Cc1ccc(C)c2c1[nH]c1ccccc12 | inactive |
| CC(C)CCN1CCN(Cc2nc3ccccc3s2)CC1CCO (stereo not given) | inconclusive: 8.2 µM [cytotoxic, partial curve] |
| CCN(CC)C(=O)CSc1nnc(SCc2ccc(Cl)cc2)s1 | inconclusive: 14.6 µM [cytotoxic, partial curve, poor fit] |
| C/C(=N\NC(=O)c1n[nH]c2c1CCC2)c1cccs1 | inactive |
| CSc1ccc(CNC(=O)C2CCC(=O)N(CCc3ccc(Cl)cc3)C2)cc1 (stereo not given) | inconclusive: 14.6 µM [cytotoxic, single point] |
| NC(=O)c1ccc(N2CCN(S(=O)(=O)c3cccs3)CC2)c([N+](=O)[O-])c1 | inactive |
| CCc1ccccc1NC(=O)C1CCN(c2nc3ccccc3[nH]2)CC1 | inactive |
| CC(C)(C)C1=CC(=Nc2ccccc2N)C=C(C(C)(C)C)C1=O | inconclusive: 14.6 µM [cytotoxic, partial curve] |
| COc1cccc(OC)c1C(=O)Nc1ccccc1N1CCCCC1 | inconclusive: 8.2 µM [cytotoxic, partial curve] |
| Cc1cccn2c(=O)c3cc(C(=O)N4CC(C)CC(C)C4)sc3nc12 (stereo not given) | inconclusive: 4.11 µM [cytotoxic, full curve] |
| Cc1ccc(NC(=O)c2cc(N3C(=O)C=CC3=O)ccc2N2CCOCC2)cc1Cl | inactive |
| O=C(Cn1cncn1)NCc1cc(F)ccc1F | inconclusive: 29.1 µM [cytotoxic, single point] |
| CCc1nnc(NC(=O)CSc2nc3c([nH]c4ccccc43)c(=O)n2-c2ccc(F)cc2)s1 | inactive |
| Cc1c(O)ccc2c3c(c(=O)oc12)CCCC3 | active: 16.4 µM |
| CC(C)C(=O)NC(=S)/C=C1/N(C)c2ccccc2C1(C)C | inconclusive: 29.1 µM [cytotoxic, single point] |
| CCC(C(=O)Nc1ccc(S(=O)(=O)Nc2ncccn2)cc1)c1ccccc1 (stereo not given) | inconclusive: 29.1 µM [rising, single point] |
| Cc1ccc2oc(=O)c3cc(C(=O)Nc4ccc(C)c(F)c4)sc3c2c1 | inconclusive: 8.2 µM [rising, partial curve, poor fit] |
| CCOc1ccc(OCCSc2nc3ccccc3[nH]2)cc1 | inconclusive: 18.4 µM [cytotoxic, partial curve, poor fit] |
| COc1ccccc1NC(=O)Nc1nc(C(N)C2CCCCC2)cs1 (stereo not given) | inactive |
| O=C(CSc1ncnc2c1oc1ccccc12)NCC1CCCO1 (stereo not given) | inactive |

— PubChem BioAssay AID1347076 (National Center for Advancing Translational Sciences (NCATS), 2019)
